The record followed here is PMC9803678.

The target of one experiment is T1, Myc-SNAPIN (UniProt O95295).
T1 sequence: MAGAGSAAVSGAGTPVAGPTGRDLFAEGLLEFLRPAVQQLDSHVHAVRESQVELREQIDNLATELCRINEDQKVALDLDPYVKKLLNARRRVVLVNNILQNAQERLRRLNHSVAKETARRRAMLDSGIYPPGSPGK
Description: co-IP; HEK293 cells transfected 24 h with Myc-SNAPIN (WT, T14A or T14E) and GFP-Dynein, HA-Dynein A or HA-Dynein B, with or without Flag-DYRK3-WT or Flag-DYRK3-KM; some cells treated 6 h with 1 uM GSK-626616 or 6 h with DMEM (serum deprivation); lysates immunoprecipitated with anti-Myc antibody ….

The target of a further experiment is T2, Myc-SNAPIN-T14E (UniProt O95295).
T2 sequence: T1 sequence with T14E
The description is as above.

Positions count from the first letter of the chain named. These are yes or no findings as the source states them, for the method shown. Binding seen in cells or lysates may run through a third protein. Binding can be weak; no strength is given. Where a sequence is shown, tags or fusion partners need not be part of it.

Regarding GFP-Dynein, the binding entry in the experiment with Myc-SNAPIN and in the experiment with Myc-SNAPIN-T14E was “binds” each time.

As for HA-Dynein A, in the experiment with Myc-SNAPIN, the binding result is listed as “binds”.

Regarding HA-Dynein B, in the experiment with Myc-SNAPIN, the binding entry is listed as “binds”.
